# Laboratory results from PubChem BioAssay (EPA / NIEHS).
# Inconclusive results, whose numbers are uncertain, are shown with a selection of clear calls. Potencies of inconclusive entries are doubtful fits and often do not repeat. Calls of active or inactive are those of the source. The calls were made as follows: active = hit-call score of the fitted dose curve at least 0.9, where 1 is the maximum; inconclusive = response in the unintended direction; inactive = score below 0.9.
# Assay: Tanguay_ZF_120hpf_YSE_legacy: (Legacy) Oregon State University Tanguay Lab 120 Hour Post-fertilization zebrafish Assay for Yolk Sac Edema (AID 2283634);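 as to AC50: actives raise the incidence of yolk sac edema above the DMSO baseline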
# Method in brief: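 Tropical 5D wild-type embryos, dechorionated with pronase at 4 hpf, were exposed singly from 6 hpf to 120 hpf under static, sealed, dark conditions at 28C with 0.64% DMSO final. Yolk sac edema was scored present/absent by brightfield microscopy.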
SMILES,AC50,outcome
Clc1cc(Cl)c(Cl)cc1Cl,inconclusive: 7.09 µM,–
CC(C)CCCCCCCOC(=O)CCCCC(=O)OCCCCCCCC(C)C,–,inactive
CCCCCCC(=O)OCC,inconclusive: 171 µM,–
Cn1c(=O)cc(Oc2ccc(F)cc2F)c2cnc(NCC(C)(C)O)nc21,active: 15.7 µM,–
Cc1ccc([N+](=O)[O-])cc1N,–,inactive
CC1=C(/C=C/C(C)=C/C=C/C(C)=C/CO)C(C)(C)CCC1,–,inactive

# Assay: Tanguay_ZF_120hpf_AXIS_legacy: (Legacy) Oregon State University Tanguay Lab 120 Hour Post-fertilization zebrafish Assay for Body Axis Malformation (AID 2283635);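 as to AC50: potency for an increased fraction of larvae scored with body axis malformation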
# Method in brief: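 Tropical 5D wild-type zebrafish embryos, dechorionated with pronase at 4 hpf, were placed singly in wells at 6 hpf and exposed statically to test chemical (0.64% DMSO final) at 28C until 120 hpf, then scored by brightfield for body axis defects.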
SMILES,AC50,outcome
CCCCCCc1ccc(O)cc1O,inconclusive: 9.5 µM,–
Clc1cc(Cl)c(Cl)cc1Cl,inconclusive: 35.6 µM,–
Cc1cc(F)ccc1-c1cc(N2CC[C@@H](O)[C@H]2CO)ncc1N(C)C(=O)C(C)(C)c1cc(C(F)(F)F)cc(C(F)(F)F)c1,–,inactive
CN(C)C=O,–,inactive
CCOCCOCCOCCO,inconclusive: 201 µM,–
CCC(C)=NO,inconclusive: 78.9 µM,–
O=C(O)Cc1cc(I)c(Oc2ccc(O)c(I)c2)c(I)c1,active: 0.0871 µM,–

# Assay: Tanguay_ZF_120hpf_EYE_legacy: (Legacy) Oregon State University Tanguay Lab 120 Hour Post-fertilization zebrafish Assay for Eye Malformation (AID 2283636);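 also: binary presence or absence of eye malformation scored by brightfield in 120 hpf larvae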
# Method in brief: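 Dechorionated wild-type Tropical 5D zebrafish embryos were exposed statically from 6 hpf, one per well, to 120 hpf at 28C in sealed, foil-covered plates with 0.64% DMSO. Eye malformation was scored present/absent by brightfield microscopy against DMSO controls.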
SMILES,AC50,outcome
CN[C@H]1CC[C@@H](c2ccc(Cl)c(Cl)c2)c2ccc(S(N)(=O)=O)cc21,inconclusive: 202 µM,–
Cc1cc(F)ccc1-c1cc(N2CC[C@@H](O)[C@H]2CO)ncc1N(C)C(=O)C(C)(C)c1cc(C(F)(F)F)cc(C(F)(F)F)c1,–,inactive
CCCCC(CC)COP(=O)(OCC(CC)CCCC)OCC(CC)CCCC (stereo not given),–,inactive
CN(C)C=O,inconclusive: 1.15 µM,–
Cc1ccc([N+](=O)[O-])cc1N,inconclusive: 198 µM,–
CCCOc1sc(C(=O)N2CCC(c3cc(CN)ccc3F)CC2)c(C)c1Br,–,inactive
CCCCOC(=O)CC(CC(=O)OCCCC)(OC(C)=O)C(=O)OCCCC,inconclusive: 140 µM,–

# Assay: Tanguay_ZF_120hpf_SNOU_legacy: (Legacy) Oregon State University Tanguay Lab 120 Hour Post-fertilization zebrafish Assay for Snout Malformation (AID 2283637)
# Method in brief: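 Tropical 5D wild-type zebrafish embryos, dechorionated with pronase at 4 hpf, were exposed singly from 6 hpf to 120 hpf statically at 28C in 0.64% DMSO. Snout malformation was scored present/absent by brightfield microscopy, fitted against DMSO.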
SMILES,AC50,outcome
Clc1cc(Cl)c(Cl)cc1Cl,inconclusive: 202 µM,–
CC(C)CCCCCCCOC(=O)CCCCC(=O)OCCCCCCCC(C)C,–,inactive
Cc1cc(F)ccc1-c1cc(N2CC[C@@H](O)[C@H]2CO)ncc1N(C)C(=O)C(C)(C)c1cc(C(F)(F)F)cc(C(F)(F)F)c1,inconclusive: 1.01 µM,–
COc1cc(C(=O)NC2CCN(C)CC2)ccc1Nc1ncc2c(n1)N(C1CCCC1)CC(F)(F)C(=O)N2C,active: 10.1 µM,–
CCCOc1sc(C(=O)N2CCC(c3cc(CN)ccc3F)CC2)c(C)c1Br,inconclusive: 13 µM,–
CCCCC(CC)COC(=O)CC(C(=O)OCC(CC)CCCC)S(=O)(=O)O (stereo not given),–,inactive

# Assay: Tanguay_ZF_120hpf_JAW_legacy: (Legacy) Oregon State University Tanguay Lab 120 Hour Post-fertilization zebrafish Assay for Jaw Malformation (AID 2283638);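 also: active means more embryos with jaw malformation than DMSO controls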
# Method in brief: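 Tropical 5D wild-type embryos, dechorionated with pronase at 4 hpf, were placed singly per well at 6 hpf and statically exposed at 28C until 120 hpf (0.64% DMSO final). Jaw malformation scored as present/absent by brightfield microscopy at 120 hpf, analyzed relative to DMSO.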
row,SMILES,AC50
1,CCCCCCC(=O)OCC,inconclusive: 0.078 µM
2,Cc1ccc(C(C)C)c(O)c1,inconclusive: 169 µM
3,COc1cc(C(=O)NC2CCN(C)CC2)ccc1Nc1ncc2c(n1)N(C1CCCC1)CC(F)(F)C(=O)N2C,active: 34.6 µM
4,CCOCCOCCOCCO,inconclusive: 75.2 µM
